In PMC8202955, “The nonreceptor tyrosine kinase SRMS inhibits autophagy and promotes tumor growth by phosphorylating the scaffolding protein FKBP51” (PLoS Biology, 2021):
No constants are given. Whether binding was seen depends on the method and setting. Binding seen in cells or lysates may run through a third protein. Binding can be weak; no strength is given. Tags and fused reporters may be left off the sequences shown.

Target: T1, HisMax-FKBP51 Y54F (UniProt Q13451)
T1 sequence: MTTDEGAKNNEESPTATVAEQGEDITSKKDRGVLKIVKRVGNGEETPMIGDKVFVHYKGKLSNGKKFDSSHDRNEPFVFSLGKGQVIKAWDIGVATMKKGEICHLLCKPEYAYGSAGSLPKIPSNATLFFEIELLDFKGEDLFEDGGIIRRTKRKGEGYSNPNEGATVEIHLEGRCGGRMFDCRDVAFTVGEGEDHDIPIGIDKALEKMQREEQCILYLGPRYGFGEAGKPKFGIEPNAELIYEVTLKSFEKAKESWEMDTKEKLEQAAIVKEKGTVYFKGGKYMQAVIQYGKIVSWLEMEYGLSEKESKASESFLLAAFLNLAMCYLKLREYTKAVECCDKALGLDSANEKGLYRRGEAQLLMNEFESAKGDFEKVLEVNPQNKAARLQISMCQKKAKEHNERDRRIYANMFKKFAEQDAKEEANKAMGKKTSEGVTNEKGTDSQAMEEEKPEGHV
Assay: co-IP; FKBP51(Y54F) or WT FKBP51 transfected in 293FT cells; IP by anti-Xpress, western blot

For PHLPP (in 293FT cells, Fig 4G) (enzyme), the binding was “binds”.
